# Test results reported in the supplement of paper PMC6411743.
# Chains of the proteins cited; added tags and fusions are not shown. Lines headed by an entry give the natural chain unless they say otherwise; changes in a name come on top.
# UniProt P63146, whole entry: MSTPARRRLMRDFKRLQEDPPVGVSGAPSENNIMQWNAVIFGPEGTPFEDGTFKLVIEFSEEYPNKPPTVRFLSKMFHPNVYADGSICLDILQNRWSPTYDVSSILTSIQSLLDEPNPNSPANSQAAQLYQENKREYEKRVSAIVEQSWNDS
# UniProt P62256: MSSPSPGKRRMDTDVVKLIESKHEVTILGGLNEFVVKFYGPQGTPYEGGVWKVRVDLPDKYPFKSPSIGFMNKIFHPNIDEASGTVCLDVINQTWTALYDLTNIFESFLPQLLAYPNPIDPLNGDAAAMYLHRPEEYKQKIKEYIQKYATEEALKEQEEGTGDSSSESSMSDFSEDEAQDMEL
# UniProt P60033: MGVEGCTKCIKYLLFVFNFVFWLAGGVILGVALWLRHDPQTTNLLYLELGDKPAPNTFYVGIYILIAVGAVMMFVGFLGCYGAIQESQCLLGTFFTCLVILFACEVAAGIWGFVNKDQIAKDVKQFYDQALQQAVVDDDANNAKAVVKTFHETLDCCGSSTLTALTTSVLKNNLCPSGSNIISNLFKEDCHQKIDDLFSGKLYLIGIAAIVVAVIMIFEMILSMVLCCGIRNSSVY
# UniProt P60602: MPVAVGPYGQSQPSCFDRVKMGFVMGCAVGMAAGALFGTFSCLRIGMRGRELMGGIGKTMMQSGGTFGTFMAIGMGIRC
# UniProt P52948: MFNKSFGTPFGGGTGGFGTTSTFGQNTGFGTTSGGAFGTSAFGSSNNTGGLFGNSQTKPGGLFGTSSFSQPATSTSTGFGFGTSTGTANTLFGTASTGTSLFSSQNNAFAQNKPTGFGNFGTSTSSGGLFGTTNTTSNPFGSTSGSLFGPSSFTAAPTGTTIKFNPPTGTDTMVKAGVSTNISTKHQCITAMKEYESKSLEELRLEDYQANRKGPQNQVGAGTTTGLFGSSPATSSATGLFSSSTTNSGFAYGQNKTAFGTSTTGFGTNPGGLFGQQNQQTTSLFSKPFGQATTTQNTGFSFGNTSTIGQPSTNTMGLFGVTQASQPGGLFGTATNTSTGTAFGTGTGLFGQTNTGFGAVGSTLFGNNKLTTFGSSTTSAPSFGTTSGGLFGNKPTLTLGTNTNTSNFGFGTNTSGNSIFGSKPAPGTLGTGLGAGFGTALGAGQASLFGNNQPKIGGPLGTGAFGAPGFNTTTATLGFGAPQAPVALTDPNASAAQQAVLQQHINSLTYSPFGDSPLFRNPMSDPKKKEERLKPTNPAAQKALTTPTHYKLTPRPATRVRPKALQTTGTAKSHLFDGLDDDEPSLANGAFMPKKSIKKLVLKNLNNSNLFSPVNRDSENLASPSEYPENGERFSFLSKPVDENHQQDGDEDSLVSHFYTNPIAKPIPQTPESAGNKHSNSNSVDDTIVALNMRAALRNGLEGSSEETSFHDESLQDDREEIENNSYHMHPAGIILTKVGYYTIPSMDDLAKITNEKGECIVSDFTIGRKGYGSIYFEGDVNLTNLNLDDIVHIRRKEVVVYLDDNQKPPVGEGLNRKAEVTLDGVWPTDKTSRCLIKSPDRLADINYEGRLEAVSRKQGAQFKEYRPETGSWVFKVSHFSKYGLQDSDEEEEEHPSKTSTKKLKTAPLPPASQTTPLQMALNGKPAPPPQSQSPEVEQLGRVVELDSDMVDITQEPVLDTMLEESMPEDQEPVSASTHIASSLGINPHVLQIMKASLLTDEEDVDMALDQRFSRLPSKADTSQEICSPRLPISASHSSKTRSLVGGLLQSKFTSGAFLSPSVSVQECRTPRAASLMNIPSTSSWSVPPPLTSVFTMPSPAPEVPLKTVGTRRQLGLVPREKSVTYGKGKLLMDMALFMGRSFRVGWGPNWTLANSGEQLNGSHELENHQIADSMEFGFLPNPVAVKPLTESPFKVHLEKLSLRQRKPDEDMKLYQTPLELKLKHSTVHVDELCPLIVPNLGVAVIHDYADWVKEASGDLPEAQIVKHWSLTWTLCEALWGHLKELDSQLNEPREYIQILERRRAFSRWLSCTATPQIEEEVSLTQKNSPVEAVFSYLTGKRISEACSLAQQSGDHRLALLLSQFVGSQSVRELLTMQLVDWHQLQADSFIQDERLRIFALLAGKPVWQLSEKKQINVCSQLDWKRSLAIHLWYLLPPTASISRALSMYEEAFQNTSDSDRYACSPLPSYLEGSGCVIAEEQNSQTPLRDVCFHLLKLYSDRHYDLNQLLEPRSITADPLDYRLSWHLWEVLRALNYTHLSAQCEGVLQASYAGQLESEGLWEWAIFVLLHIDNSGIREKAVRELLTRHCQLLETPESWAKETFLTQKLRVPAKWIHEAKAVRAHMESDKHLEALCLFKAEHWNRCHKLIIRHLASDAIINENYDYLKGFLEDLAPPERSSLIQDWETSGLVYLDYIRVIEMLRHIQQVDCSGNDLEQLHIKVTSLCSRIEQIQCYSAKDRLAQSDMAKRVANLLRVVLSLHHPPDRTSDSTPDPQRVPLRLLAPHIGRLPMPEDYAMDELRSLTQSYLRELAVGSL
# UniProt P62191: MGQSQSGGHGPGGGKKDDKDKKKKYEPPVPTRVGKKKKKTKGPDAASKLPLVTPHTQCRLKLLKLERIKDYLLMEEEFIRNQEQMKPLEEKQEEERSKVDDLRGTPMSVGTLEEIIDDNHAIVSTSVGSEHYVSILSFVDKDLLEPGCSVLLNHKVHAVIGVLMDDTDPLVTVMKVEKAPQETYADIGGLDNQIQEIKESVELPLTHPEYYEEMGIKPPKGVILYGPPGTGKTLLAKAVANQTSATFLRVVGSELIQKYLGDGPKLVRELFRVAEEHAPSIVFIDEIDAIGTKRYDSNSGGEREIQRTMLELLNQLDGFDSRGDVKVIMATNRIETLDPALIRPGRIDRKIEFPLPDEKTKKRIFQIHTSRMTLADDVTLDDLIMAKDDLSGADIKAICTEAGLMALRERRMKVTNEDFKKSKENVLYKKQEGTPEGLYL
# UniProt P68402: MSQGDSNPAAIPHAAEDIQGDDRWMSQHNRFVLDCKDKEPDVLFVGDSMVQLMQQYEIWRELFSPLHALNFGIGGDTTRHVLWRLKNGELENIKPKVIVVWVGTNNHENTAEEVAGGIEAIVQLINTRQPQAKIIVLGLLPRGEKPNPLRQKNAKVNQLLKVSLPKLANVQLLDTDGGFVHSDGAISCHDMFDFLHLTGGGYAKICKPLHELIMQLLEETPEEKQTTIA
# UniProt P61011: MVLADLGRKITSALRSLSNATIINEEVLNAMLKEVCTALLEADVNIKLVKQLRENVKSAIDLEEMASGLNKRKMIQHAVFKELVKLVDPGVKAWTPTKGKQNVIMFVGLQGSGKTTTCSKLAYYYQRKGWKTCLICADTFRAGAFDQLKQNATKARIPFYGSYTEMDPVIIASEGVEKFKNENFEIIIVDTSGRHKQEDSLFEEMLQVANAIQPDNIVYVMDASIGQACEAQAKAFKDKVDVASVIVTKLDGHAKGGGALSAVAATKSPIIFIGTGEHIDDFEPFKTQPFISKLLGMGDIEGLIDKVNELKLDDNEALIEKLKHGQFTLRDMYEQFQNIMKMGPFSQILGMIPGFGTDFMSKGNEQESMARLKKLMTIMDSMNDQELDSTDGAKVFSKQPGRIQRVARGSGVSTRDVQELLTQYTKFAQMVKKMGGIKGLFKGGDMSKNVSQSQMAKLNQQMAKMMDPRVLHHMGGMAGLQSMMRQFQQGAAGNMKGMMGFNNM
# UniProt P60520, whole entry: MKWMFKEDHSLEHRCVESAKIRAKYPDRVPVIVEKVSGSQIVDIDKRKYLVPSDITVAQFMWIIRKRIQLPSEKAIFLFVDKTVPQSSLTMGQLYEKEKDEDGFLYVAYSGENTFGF
# UniProt P54687: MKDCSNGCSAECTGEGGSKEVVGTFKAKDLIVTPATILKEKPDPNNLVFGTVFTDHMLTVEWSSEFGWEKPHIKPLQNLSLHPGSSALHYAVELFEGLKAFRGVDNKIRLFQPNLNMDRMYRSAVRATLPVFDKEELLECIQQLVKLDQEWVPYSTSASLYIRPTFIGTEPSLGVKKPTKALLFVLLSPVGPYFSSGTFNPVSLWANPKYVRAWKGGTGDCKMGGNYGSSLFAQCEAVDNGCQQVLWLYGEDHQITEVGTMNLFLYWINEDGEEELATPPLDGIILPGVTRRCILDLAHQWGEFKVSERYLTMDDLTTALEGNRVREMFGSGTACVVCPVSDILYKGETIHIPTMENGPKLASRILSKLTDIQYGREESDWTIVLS
# UniProt P84090, whole entry, looked up: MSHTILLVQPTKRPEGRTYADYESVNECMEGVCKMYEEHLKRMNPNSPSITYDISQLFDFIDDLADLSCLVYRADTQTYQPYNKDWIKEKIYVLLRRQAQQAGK
# UniProt P62942, whole entry: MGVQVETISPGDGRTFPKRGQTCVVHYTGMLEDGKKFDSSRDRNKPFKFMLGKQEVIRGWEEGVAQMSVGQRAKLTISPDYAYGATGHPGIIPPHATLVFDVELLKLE
# UniProt P84085: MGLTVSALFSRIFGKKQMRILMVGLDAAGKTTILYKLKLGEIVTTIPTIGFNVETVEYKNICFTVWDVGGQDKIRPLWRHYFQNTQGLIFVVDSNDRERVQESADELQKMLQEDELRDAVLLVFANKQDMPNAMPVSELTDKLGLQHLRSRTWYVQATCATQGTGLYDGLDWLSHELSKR
# UniProt P62380: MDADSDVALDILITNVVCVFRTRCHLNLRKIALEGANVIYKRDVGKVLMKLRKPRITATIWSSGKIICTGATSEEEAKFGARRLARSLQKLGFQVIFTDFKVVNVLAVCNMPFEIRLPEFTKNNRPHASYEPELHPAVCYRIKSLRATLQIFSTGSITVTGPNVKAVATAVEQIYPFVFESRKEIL
# UniProt P84103: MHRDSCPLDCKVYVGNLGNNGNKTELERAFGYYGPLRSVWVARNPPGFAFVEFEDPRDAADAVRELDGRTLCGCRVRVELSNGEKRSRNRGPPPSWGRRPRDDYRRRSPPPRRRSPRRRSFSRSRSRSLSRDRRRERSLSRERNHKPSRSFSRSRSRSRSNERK
# UniProt P78362, whole entry, looked up: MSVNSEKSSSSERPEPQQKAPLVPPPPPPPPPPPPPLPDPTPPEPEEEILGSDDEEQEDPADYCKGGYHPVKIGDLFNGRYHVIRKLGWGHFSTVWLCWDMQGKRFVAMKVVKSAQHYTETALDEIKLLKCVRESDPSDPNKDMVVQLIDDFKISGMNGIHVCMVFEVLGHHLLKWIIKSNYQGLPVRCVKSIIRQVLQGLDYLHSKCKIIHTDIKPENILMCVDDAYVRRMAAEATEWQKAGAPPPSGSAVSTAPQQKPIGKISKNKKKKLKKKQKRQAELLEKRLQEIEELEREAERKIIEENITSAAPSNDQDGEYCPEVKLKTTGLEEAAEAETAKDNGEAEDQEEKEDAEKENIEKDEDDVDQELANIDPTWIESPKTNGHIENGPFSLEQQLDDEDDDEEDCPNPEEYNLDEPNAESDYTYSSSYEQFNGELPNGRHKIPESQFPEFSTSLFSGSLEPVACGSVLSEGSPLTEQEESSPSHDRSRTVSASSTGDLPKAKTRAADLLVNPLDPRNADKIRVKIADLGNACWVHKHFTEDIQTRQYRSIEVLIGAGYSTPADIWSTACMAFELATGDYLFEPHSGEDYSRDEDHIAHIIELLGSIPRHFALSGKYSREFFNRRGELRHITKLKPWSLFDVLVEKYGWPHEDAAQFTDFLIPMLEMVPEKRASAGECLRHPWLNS
# UniProt P54577: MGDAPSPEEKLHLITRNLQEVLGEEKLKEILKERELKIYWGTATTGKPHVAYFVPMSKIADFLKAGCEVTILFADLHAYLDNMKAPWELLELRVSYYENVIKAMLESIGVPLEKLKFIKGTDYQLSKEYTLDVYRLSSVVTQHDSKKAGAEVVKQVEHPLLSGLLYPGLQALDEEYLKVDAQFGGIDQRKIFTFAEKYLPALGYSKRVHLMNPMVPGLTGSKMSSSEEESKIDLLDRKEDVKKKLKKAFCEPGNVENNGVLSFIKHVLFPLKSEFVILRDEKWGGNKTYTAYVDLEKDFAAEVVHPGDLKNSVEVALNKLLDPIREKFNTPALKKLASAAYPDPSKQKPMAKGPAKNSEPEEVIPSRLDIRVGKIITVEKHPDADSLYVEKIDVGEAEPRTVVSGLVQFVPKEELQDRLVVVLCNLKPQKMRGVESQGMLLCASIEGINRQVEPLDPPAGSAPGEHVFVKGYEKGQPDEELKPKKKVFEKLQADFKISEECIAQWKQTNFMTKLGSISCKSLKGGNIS
# UniProt P61758, whole entry: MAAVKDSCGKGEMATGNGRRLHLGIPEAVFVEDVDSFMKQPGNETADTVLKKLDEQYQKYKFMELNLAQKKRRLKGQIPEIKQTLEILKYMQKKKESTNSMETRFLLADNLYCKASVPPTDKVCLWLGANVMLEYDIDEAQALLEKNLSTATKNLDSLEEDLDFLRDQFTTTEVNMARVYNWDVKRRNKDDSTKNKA
# UniProt P78560: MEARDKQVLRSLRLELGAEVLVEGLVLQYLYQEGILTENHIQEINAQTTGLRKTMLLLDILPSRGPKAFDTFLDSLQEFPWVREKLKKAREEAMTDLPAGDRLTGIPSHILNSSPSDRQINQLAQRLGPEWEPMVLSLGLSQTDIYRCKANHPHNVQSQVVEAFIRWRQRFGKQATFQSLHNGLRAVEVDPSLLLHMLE
# ± gives the standard deviation of the averaged measurements. The list shows a part of the results, in another mix than the full data.
# Compound: Nc1ncnc2c1ncn2[C@@H]1O[C@H](COP(=O)(O)OP(=O)(O)OP(=O)(O)O)[C@@H](O)[C@H]1O [adenosine triphosphate]
# Assay: NP40-soluble protein abundance relative to vehicle (solubility fold change) (ratio); higher = more soluble protein in presence of ATP
# Outline: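 Jurkat crude lysate prepared with a Dounce homogeniser was treated at eight concentrations spanning 0.1 to 10 mM, 10 min at room temperature then 3 min at 37 °C. Solubilisation with 0.8% NP40 and benzonase and ultracentrifugation preceded TMT labelling of the supernatant for LC-MS/MS. Fold change against the detergent-processed vehicle was determined per replicate from vsn-normalised intensities, across three independent experiments.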
Target,NP40-soluble protein abundance (concentration: 1mM),NP40-soluble protein abundance (concentration: 2mM),NP40-soluble protein abundance (concentration: 4mM),NP40-soluble protein abundance (concentration: 6mM),NP40-soluble protein abundance (concentration: 8mM),NP40-soluble protein abundance (concentration: 10mM)
UniProt P63146,1.05 ± 0.062,1.03 ± 0.043,0.976 ± 0.031,1.03 ± 0.093,1.04 ± 0.069,0.976 ± 0.012
MRPS34 (UniProt P82930),0.995 ± 0.064,0.952 ± 0.092,0.973 ± 0.1,0.93 ± 0.18,0.94 ± 0.14,0.877 ± 0.1
EIF6 (UniProt P56537),1.01 ± 0.084,1.06 ± 0.083,1.04 ± 0.042,0.976 ± 0.1,0.99 ± 0.052,0.968 ± 0.049
UniProt P62256 and related entries,0.934 ± 0.062,0.96 ± 0.033,0.933 ± 0.05,0.94 ± 0.041,0.889 ± 0.074,0.884 ± 0.032
CD81 (UniProt P60033),0.958 ± 0.093,0.933 ± 0.079,0.907 ± 0.068,0.887 ± 0.079,0.903 ± 0.091,0.868 ± 0.073
ROMO1 (UniProt P60602),0.833 ± 0.05,1.01 ± 0.1,0.937 ± 0.097,0.83 ± 0.08,0.873 ± 0.17,1.01 ± 0.04
UniProt P52948 and related entries,1.001 ± 0.0034,1.022 ± 0.0074,1.04 ± 0.011,1.11 ± 0.021,1.11 ± 0.017,1.17 ± 0.033
UniProt P62191,0.9649 ± 0.0081,0.88 ± 0.045,0.858 ± 0.02,0.891 ± 0.095,0.9 ± 0.048,0.873 ± 0.047
PAFAH1B2 (UniProt P68402),0.829 ± 0.061,0.868 ± 0.059,0.831 ± 0.015,0.821 ± 0.069,0.833 ± 0.022,0.824 ± 0.025
UniProt P62995 and related entries,1.24 ± 0.086,1.32 ± 0.17,1.45 ± 0.23,1.59 ± 0.34,1.55 ± 0.2,1.68 ± 0.26
RPL10A (UniProt P62906),1.07 ± 0.034,1.05 ± 0.038,1.03 ± 0.028,0.978 ± 0.022,0.903 ± 0.064,0.915 ± 0.032
SRP54 (UniProt P61011),0.974 ± 0.031,0.986 ± 0.027,0.977 ± 0.042,1.02 ± 0.012,1.02 ± 0.047,1.03 ± 0.034
UniProt P60520,0.96 ± 0.12,0.955 ± 0.09,0.917 ± 0.079,0.919 ± 0.15,0.932 ± 0.11,0.9 ± 0.12
UniProt P54687 and related entries,0.998 ± 0.028,0.997 ± 0.027,0.979 ± 0.076,0.952 ± 0.067,0.982 ± 0.061,0.956 ± 0.061
UniProt P84090,1.1 ± 0.055,1.18 ± 0.069,1.24 ± 0.059,1.38 ± 0.12,1.35 ± 0.032,1.38 ± 0.14
UniProt P62899,0.927 ± 0.1,0.947 ± 0.19,0.918 ± 0.2,0.892 ± 0.2,0.741 ± 0.17,1 ± 0.17
UniProt P54725 and related entries,0.886 ± 0.017,0.919 ± 0.013,0.913 ± 0.018,0.876 ± 0.028,0.961 ± 0.081,0.874 ± 0.063
FKBP1A (UniProt P62942),1.11 ± 0.17,0.987 ± 0.1,0.986 ± 0.028,1.02 ± 0.048,0.968 ± 0.018,0.957 ± 0.059
UniProt P84085,1.04 ± 0.13,0.964 ± 0.06,0.947 ± 0.022,0.918 ± 0.091,0.916 ± 0.041,0.92 ± 0.015
UniProt P62380 and related entries,0.849 ± 0.13,0.897 ± 0.14,0.905 ± 0.11,0.735 ± 0.11,0.864 ± 0.097,0.9 ± 0.079
UniProt P84103 and related entries,1.28 ± 0.1,1.29 ± 0.072,1.3 ± 0.11,1.45 ± 0.089,1.397 ± 0.0027,1.39 ± 0.089
UniProt P61927,0.975 ± 0.1,0.95 ± 0.12,0.983 ± 0.17,1.07 ± 0.3,0.724 ± 0.028,0.933 ± 0.14
EEF1A1 (UniProt P68104),0.965 ± 0.048,0.972 ± 0.065,0.875 ± 0.036,0.957 ± 0.033,0.94 ± 0.028,0.932 ± 0.05
UniProt P78362-2|P78362,1.1 ± 0.013,1.149 ± 0.0076,1.24 ± 0.026,1.36 ± 0.035,1.38 ± 0.034,1.47 ± 0.026
UniProt P53805 and related entries,0.894 ± 0.043,0.927 ± 0.1,0.885 ± 0.045,0.79 ± 0.017,0.858 ± 0.1,0.935 ± 0.044
YARS (UniProt P54577),0.992 ± 0.025,0.97 ± 0.031,0.926 ± 0.033,0.998 ± 0.057,0.954 ± 0.04,0.944 ± 0.039
VBP1 (UniProt P61758),0.899 ± 0.06,0.891 ± 0.013,0.888 ± 0.017,0.931 ± 0.057,0.923 ± 0.027,0.852 ± 0.037
CRADD (UniProt P78560),1.01 ± 0.11,1 ± 0.011,0.99 ± 0.052,0.902 ± 0.12,0.963 ± 0.12,0.877 ± 0.069
RPL7A (UniProt P62424),0.954 ± 0.028,0.897 ± 0.058,0.87 ± 0.057,0.83 ± 0.083,0.72 ± 0.082,0.89 ± 0.075
UniProt Q00325 and related entries,0.917 ± 0.12,0.913 ± 0.072,0.883 ± 0.016,0.831 ± 0.1,0.931 ± 0.03,0.987 ± 0.042

# Looked up above.
# Value for VBP1 (UniProt P61758) under NP40-soluble protein abundance (concentration: 8mM): 0.923 ± 0.027
# Value for UniProt P54725 and related entries under NP40-soluble protein abundance (concentration: 10mM): 0.874 ± 0.063
